The supplement of paper PMC10849652
Some of the results follow.

The chains behind the UniProt entries cited, without tags or fusion partners. Where a name states a change or a piece, a line headed by the entry shows the natural chain unless it says otherwise.
UniProt O75494: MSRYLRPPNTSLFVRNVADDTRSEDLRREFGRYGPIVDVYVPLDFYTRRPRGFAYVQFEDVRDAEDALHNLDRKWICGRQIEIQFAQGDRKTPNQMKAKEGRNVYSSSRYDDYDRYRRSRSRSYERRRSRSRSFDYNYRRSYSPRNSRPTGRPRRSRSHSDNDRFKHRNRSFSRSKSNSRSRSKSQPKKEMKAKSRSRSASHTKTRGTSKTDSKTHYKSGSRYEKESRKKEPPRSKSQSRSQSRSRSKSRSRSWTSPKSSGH
UniProt P61011: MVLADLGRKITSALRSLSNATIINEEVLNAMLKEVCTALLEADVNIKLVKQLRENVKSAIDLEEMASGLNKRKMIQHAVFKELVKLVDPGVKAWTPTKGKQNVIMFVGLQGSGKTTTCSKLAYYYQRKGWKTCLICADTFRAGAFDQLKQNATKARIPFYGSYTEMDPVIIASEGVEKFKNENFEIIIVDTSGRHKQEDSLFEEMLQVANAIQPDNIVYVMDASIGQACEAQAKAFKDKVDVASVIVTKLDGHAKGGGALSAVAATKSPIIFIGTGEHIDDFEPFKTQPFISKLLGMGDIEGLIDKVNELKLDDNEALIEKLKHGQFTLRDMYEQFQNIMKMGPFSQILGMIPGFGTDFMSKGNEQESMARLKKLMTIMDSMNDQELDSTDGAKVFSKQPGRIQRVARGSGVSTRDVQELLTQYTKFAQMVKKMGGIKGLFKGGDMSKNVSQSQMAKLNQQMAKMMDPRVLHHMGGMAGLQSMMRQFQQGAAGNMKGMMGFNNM
UniProt O95630, whole entry, looked up: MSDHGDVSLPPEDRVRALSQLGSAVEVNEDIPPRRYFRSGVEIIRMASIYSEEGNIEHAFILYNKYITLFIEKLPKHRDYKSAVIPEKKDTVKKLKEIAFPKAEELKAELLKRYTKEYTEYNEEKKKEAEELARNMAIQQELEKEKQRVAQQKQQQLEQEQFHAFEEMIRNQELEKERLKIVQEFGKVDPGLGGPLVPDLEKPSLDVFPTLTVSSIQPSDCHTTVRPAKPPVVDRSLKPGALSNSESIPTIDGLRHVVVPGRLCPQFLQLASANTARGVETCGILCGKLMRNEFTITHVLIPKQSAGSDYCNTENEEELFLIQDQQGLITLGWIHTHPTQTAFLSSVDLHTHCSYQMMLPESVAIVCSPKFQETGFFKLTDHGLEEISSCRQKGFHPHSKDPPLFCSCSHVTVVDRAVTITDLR
UniProt Q9C004: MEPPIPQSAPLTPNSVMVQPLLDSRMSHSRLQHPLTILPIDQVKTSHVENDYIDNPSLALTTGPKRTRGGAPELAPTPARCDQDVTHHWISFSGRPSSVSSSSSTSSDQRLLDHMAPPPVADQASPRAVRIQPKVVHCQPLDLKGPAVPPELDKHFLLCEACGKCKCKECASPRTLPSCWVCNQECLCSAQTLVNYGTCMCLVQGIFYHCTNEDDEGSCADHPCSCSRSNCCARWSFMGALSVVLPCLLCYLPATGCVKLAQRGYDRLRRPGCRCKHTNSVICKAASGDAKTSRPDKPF
UniProt Q8NB90: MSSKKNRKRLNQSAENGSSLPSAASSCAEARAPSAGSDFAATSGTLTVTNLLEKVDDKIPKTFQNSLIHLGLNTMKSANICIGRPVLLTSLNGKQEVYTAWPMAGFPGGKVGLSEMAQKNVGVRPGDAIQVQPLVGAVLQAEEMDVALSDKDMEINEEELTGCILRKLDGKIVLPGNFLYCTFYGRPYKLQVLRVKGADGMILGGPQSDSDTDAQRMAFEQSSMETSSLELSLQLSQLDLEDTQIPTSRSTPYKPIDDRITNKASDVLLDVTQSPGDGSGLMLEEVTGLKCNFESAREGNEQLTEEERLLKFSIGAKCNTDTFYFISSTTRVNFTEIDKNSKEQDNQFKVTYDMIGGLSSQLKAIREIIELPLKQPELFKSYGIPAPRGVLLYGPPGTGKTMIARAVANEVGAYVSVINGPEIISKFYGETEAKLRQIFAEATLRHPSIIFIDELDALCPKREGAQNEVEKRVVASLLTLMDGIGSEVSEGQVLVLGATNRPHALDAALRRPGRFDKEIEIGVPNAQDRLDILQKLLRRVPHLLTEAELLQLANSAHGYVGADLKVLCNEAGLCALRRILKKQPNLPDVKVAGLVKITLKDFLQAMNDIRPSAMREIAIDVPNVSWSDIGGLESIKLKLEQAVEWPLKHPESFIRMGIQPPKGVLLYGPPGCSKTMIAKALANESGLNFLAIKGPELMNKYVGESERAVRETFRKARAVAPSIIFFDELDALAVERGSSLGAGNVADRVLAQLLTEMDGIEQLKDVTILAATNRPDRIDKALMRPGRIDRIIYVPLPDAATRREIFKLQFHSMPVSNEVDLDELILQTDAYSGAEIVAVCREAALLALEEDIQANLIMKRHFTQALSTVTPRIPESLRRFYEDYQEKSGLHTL
UniProt Q9BRL6: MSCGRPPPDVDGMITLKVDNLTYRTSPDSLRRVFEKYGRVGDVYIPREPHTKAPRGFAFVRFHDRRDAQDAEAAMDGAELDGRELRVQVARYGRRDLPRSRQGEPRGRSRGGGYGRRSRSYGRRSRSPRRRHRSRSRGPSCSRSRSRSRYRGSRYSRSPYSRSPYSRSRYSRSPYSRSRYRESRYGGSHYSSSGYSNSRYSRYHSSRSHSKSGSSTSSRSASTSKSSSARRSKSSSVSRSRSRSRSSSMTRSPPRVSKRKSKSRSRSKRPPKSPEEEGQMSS
UniProt Q12772: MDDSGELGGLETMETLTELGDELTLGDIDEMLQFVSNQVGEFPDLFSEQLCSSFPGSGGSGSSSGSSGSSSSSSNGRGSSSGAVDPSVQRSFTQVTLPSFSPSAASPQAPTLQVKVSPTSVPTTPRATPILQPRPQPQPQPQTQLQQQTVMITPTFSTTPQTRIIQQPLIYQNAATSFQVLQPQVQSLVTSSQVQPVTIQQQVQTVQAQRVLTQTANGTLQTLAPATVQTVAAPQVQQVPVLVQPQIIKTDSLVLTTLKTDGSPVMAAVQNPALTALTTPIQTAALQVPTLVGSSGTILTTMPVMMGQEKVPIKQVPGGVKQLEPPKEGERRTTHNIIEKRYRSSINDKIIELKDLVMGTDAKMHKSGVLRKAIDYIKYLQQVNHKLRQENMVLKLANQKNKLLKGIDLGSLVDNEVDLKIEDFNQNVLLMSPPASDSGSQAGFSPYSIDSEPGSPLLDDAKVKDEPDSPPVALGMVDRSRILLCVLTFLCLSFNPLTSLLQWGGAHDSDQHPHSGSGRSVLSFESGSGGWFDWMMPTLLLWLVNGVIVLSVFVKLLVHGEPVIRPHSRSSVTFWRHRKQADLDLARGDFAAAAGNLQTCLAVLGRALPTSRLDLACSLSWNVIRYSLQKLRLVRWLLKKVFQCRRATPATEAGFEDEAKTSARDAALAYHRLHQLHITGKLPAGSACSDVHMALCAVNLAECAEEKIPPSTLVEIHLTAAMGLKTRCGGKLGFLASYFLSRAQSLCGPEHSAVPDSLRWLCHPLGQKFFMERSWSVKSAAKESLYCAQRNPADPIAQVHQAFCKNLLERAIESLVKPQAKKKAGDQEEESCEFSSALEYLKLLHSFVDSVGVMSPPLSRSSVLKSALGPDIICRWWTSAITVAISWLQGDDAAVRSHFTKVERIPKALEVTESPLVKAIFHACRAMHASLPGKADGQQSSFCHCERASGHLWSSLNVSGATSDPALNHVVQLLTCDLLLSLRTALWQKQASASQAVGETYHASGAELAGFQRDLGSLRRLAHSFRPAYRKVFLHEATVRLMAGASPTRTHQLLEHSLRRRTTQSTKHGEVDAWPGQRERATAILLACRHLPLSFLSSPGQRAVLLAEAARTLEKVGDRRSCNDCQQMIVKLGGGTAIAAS
UniProt Q05519: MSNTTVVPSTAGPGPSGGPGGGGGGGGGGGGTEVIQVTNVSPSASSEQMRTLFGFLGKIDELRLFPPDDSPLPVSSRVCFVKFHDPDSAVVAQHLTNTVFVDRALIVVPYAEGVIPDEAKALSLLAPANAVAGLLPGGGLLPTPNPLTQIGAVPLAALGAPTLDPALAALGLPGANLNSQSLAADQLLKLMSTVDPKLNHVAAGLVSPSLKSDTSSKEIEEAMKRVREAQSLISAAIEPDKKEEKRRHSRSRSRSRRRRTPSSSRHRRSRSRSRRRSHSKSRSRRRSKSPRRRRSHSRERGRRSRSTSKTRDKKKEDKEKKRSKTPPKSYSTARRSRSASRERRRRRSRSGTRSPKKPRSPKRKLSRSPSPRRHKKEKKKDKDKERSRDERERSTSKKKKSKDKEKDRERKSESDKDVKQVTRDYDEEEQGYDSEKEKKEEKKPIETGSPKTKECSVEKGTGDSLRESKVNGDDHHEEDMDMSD
UniProt Q8WXA9: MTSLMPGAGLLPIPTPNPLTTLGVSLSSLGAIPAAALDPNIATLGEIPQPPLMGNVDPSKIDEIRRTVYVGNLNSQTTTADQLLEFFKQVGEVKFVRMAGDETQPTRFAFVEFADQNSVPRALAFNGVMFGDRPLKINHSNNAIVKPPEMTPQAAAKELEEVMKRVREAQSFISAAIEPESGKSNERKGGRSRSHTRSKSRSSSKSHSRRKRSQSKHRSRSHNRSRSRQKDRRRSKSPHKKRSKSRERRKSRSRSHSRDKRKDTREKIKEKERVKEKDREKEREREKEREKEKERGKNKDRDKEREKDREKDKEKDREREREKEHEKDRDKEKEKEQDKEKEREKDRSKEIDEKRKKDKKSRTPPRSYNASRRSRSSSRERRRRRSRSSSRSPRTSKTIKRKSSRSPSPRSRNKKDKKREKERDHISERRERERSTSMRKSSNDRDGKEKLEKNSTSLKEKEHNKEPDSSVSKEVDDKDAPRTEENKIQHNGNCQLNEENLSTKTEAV
UniProt Q07955, whole entry, looked up: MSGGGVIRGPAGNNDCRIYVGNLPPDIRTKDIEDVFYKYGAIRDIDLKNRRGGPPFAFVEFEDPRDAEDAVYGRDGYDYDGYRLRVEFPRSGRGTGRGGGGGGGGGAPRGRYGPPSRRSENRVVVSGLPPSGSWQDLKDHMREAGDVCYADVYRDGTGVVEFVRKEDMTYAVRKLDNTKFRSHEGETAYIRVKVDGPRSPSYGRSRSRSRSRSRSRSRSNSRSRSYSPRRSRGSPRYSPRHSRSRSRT
UniProt Q15468: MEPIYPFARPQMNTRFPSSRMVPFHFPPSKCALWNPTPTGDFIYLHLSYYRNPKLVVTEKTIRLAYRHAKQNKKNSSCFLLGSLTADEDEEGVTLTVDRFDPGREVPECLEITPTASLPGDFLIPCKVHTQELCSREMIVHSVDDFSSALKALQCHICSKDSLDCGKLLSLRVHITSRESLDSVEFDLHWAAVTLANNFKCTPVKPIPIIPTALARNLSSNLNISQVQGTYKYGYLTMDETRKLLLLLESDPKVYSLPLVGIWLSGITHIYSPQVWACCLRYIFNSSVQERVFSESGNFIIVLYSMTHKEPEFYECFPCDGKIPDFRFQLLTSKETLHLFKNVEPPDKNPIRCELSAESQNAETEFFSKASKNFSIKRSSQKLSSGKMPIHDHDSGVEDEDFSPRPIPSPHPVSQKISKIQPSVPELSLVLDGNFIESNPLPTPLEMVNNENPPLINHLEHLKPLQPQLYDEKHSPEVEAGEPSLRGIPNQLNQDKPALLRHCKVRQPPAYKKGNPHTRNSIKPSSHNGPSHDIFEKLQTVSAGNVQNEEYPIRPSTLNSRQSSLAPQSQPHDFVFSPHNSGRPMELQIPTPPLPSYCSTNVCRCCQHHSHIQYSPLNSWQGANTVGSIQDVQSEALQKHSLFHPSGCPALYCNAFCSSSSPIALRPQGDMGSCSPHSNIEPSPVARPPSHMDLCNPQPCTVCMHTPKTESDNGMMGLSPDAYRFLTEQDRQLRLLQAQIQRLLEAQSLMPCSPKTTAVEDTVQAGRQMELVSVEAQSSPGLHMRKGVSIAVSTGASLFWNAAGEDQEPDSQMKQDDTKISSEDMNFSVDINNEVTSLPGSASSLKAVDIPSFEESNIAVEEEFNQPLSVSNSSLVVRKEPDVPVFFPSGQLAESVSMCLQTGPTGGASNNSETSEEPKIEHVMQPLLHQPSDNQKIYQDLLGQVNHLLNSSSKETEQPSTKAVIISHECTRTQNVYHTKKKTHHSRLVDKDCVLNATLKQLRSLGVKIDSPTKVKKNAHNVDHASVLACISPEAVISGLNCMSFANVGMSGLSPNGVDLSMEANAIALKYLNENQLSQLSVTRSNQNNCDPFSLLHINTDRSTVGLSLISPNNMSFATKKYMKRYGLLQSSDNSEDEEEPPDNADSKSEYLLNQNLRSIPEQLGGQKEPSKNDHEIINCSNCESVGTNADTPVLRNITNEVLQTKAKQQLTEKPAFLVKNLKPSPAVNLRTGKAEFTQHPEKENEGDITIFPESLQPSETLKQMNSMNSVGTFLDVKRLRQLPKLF

Tests used:
Test in all cases: log2 fold change, soluble protein after heating vs DMSO (PISA); higher = thermal stabilisation; K562 lysate, 10 uM; active = over 0.2 and 3.5 SD of the protein, either way, in both replicates (recomputed)
ibrutinib = compound: C=CC(=O)N1CCC[C@@H](n2nc(-c3ccc(Oc4ccccc4)cc3)c3c(N)ncnc32)C1 [ibrutinib]
Procedure, shortened: (§1)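 Dounce homogenisation of K562 pellets in PBS pH 7.4 with 1 mM MgCl2 produced a crude extract, used at 1 mg/mL protein. Exposure to 10 μM compound lasted 30 min, and aliquots were then heated for 3 min across 48°C-58°C, pooled and brought to 0.5% NP-40 at 4°C. The supernatant after 21,000xg for 90 min was quantified by TMTpro 16plex LC-MS/MS with channel sums equalised. Duplicate values are given as log-two fold change in thermal stability relative to solvent controls.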

[1] = compound: CC(=O)c1cnc2ccc(-c3cc(Cl)c(O)c(Cl)c3)nc2c1N[C@H]1CC[C@H](CN(C)C)CC1
Procedure, shortened: as §1

ralimetinib = compound: CC(C)(C)Cn1c(N)nc2ccc(-c3[nH]c(C(C)(C)C)nc3-c3ccc(F)cc3)nc21 [ralimetinib]
Procedure, shortened: as §1

[2] = compound: CC(C)(O)CC(=O)NCCn1ccc2ncnc(Nc3ccc(Oc4cccc(C(F)(F)F)c4)c(Cl)c3)c21
Procedure, shortened: as §1

[3] = compound: CC(C)C1=C2N=C(C=C(N2N=C1)NCC3=CC=CC=C3)NCCCCCCN
Procedure, shortened: as §1

[4] = compound: CC1=C(C(CC(=O)N1)C2=CC=C(C=C2)C(F)(F)F)C(=O)NC3=C(C=C4C(=C3)C=NN4)F
Procedure, shortened: as §1

[5] = compound: CC1=C(C2=C(C=C1)C(=O)C3=CC=CC=C3N2CCCN)C
Procedure, shortened: as §1

[6] = compound: CC1=C(C=C(C=C1)NC(=O)C2=CC(=CC=C2)C(C)(C)C#N)NC3=CC4=C(C=C3)N=CN(C4=O)C
Procedure, shortened: as §1

[7] = compound: CC1=C(C=C(C=C1)NC(=O)C2=CC(=CC=C2)N(C)C)NC(=O)C3=CC=C(C=C3)O
Procedure, shortened: as §1

[8] = compound: CC1=CC=C(C=C1)SC2=C3C=C(SC3=CN=C2)C(=O)N
Procedure, shortened: as §1

vemurafenib = compound: CCCS(=O)(=O)Nc1ccc(F)c(C(=O)c2c[nH]c3ncc(-c4ccc(Cl)cc4)cc23)c1F [vemurafenib]
Procedure, shortened: as §1

[9] = compound: CCCS(=O)(=O)Nc1ccc(F)c(C(=O)c2c[nH]c3ncc(Cl)cc23)c1F
Procedure, shortened: as §1

barasertib = compound: CCN(CCCOc1ccc2c(Nc3cc(CC(=O)Nc4cccc(F)c4)[nH]n3)ncnc2c1)CCOP(=O)(O)O [barasertib]
Procedure, shortened: as §1

[10] = compound: CC[C@@H]1C(=O)N(C)c2cnc(Nc3ccc(C(=O)NC4CCN(C)CC4)cc3OC)nc2N1C1CCCC1
Procedure, shortened: as §1

volasertib = compound: CC[C@@H]1C(=O)N(C)c2cnc(Nc3ccc(C(=O)N[C@H]4CC[C@H](N5CCN(CC6CC6)CC5)CC4)cc3OC)nc2N1C(C)C [volasertib]
Procedure, shortened: as §1

[11] = compound: CCn1c(C(=O)N(C2CC2)C2CC2)cc2c3c(ncn3C)c(Nc3cc(C)n(C)n3)nc21
Procedure, shortened: as §1

[12] = compound: CCn1cc(-c2ccnc3[nH]c(-c4cccc(CN(C)C)c4)cc23)c(-c2ccc(NC(=O)N(C)C)cc2)n1
Procedure, shortened: as §1

[13] = compound: CN1CCC(CNc2ccc3ncc(-c4cccc(OC(F)(F)F)c4)n3n2)CC1
Procedure, shortened: as §1

saracatinib = compound: CN1CCN(CCOc2cc(OC3CCOCC3)c3c(Nc4c(Cl)ccc5c4OCO5)ncnc3c2)CC1 [saracatinib]
Procedure, shortened: as §1

sotrastaurin = compound: CN1CCN(c2nc(C3=C(c4c[nH]c5ccccc45)C(=O)NC3=O)c3ccccc3n2)CC1 [sotrastaurin]
Procedure, shortened: as §1

Measured: log2 fold change

SRSF10 (UniProt O75494)
inactive: ibrutinib -0.057 | [1] 0.027 | ralimetinib 0.032 | [2] 0.01 | [3] 0.019 | [4] -0.029 | [5] -0.037 | [6] -0.041 | [7] 0.018 | [8] 0.031 | vemurafenib 0.017 | [9] -0.003 | barasertib -0.06 | [10] -0.049 | volasertib -0.065 | [11] 0.035 | [12] 0.212 | [13] 0.001 | saracatinib -0.043 | sotrastaurin 0.014

SPTB isoform 2 (UniProt P11277)
inactive: ibrutinib -0.02 | [1] 0.003 | ralimetinib 0.021 | [2] 0.001 | [3] -0.003 | [4] 0.007 | [5] -0.016 | [6] 0.018 | [7] 0.043 | [8] -0.012 | vemurafenib 0.007 | [9] 0.004 | barasertib 0.025 | [10] -0.018 | volasertib -0.057 | [11] 0.022 | [12] -0.049 | [13] -0.063 | saracatinib -0.012 | sotrastaurin 0.024

SRP54 (UniProt P61011)
inactive: ibrutinib -0.039 | [1] -0.023 | ralimetinib 0.031 | [2] 0.015 | [3] 0.036 | [4] 0.034 | [5] -0.069 | [6] -0.021 | [7] 0.007 | [8] -0.009 | vemurafenib 0.02 | [9] -0.024 | barasertib 0 | [10] 0.068 | volasertib -0.024 | [11] 0.017 | [12] -0.059 | [13] 0.006 | saracatinib 0.043 | sotrastaurin 0.028

STAMBP (UniProt O95630)
inactive: ibrutinib 0.033 | [1] 0.002 | ralimetinib -0.015 | [2] -0.004 | [3] 0.005 | [4] 0.018 | [5] -0.026 | [6] 0 | [7] 0.022 | [8] 0.031 | vemurafenib 0.003 | [9] -0.025 | barasertib -0.004 | [10] -0.019 | volasertib 0.002 | [11] -0.026 | [12] 0.148 | [13] 0.01 | saracatinib 0.031 | sotrastaurin 0.049

SPDL1 (UniProt Q96EA4)
inactive: ibrutinib 0.083 | [1] 0.002 | ralimetinib 0.002 | [2] -0.017 | [3] 0.029 | [4] -0.014 | [5] 0.013 | [6] -0.001 | [7] -0.01 | [8] -0.002 | vemurafenib 0.018 | [9] 0.021 | barasertib -0.019 | [10] 0.024 | volasertib -0.031 | [11] 0.022 | [12] -0.088 | [13] 0.048 | saracatinib -0.002 | sotrastaurin -0.031

SPRY4 (UniProt Q9C004)
inactive: ibrutinib 0 | [1] 0.003 | ralimetinib 0 | [2] -0.065 | [3] 0.005 | [4] -0.048 | [5] -0.034 | [6] 0.056 | [7] -0.023 | [8] -0.045 | vemurafenib 0.01 | [9] 0.012 | barasertib -0.071 | [10] 0.084 | volasertib 0.011 | [11] -0.039 | [12] 0.038 | [13] 0.02 | saracatinib 0.002 | sotrastaurin -0.003

SPATA5 (UniProt Q8NB90)
inactive: ibrutinib 0.013 | [1] -0.002 | ralimetinib 0.047 | [2] 0.025 | [3] 0.02 | [4] -0.009 | [5] 0.009 | [6] 0.002 | [7] 0.042 | [8] 0.012 | vemurafenib 0.015 | [9] 0.005 | barasertib 0.02 | [10] -0.021 | volasertib -0.068 | [11] 0.011 | [12] -0.024 | [13] -0.052 | saracatinib -0.001 | sotrastaurin 0.007

STAU2 (UniProt Q9NUL3)
inactive: ibrutinib 0.036 | [1] -0.019 | ralimetinib 0.056 | [2] 0.009 | [3] 0.044 | [4] 0 | [5] -0.024 | [6] 0.035 | [7] 0.045 | [8] -0.018 | vemurafenib 0.057 | [9] 0.002 | barasertib -0.013 | [10] 0.007 | volasertib -0.046 | [11] -0.016 | [12] 0.017 | [13] -0.039 | saracatinib 0.007 | sotrastaurin 0.069

SRSF8 (UniProt Q9BRL6)
inactive: ibrutinib -0.035 | [1] 0.013 | ralimetinib 0.033 | [2] -0.016 | [3] -0.014 | [4] -0.033 | [5] -0.029 | [6] -0.011 | [7] 0.022 | [8] 0 | vemurafenib 0.01 | [9] -0.025 | barasertib 0.014 | [10] -0.074 | volasertib 0.016 | [11] -0.008 | [12] 0.007 | [13] 0.087 | saracatinib -0.003 | sotrastaurin -0.007

SREBF2 (UniProt Q12772)
inactive: ibrutinib -0.003 | [1] 0.004 | ralimetinib -0.014 | [2] -0.026 | [3] 0.004 | [4] -0.038 | [5] 0.093 | [6] 0.16 | [7] -0.051 | [8] -0.027 | vemurafenib -0.067 | [9] -0.038 | barasertib 0.036 | [10] -0.122 | volasertib 0 | [11] 0.024 | [12] 0.183 | [13] 0.05 | saracatinib -0.078 | sotrastaurin -0.064

SRSF11 (UniProt Q05519)
inactive: ibrutinib 0.03 | [1] 0.023 | ralimetinib 0.002 | [2] 0.011 | [3] 0.019 | [4] 0.003 | [5] -0.001 | [6] -0.03 | [7] -0.003 | [8] 0.02 | vemurafenib -0.022 | [9] 0.007 | barasertib 0.018 | [10] -0.012 | volasertib -0.004 | [11] -0.018 | [12] 0.059 | [13] -0.026 | saracatinib 0.008 | sotrastaurin -0.01

SREK1 isoform 2 (UniProt Q8WXA9)
inactive: ibrutinib 0.025 | [1] 0.009 | ralimetinib -0.005 | [2] -0.006 | [3] 0.003 | [4] 0.016 | [5] 0.021 | [6] 0.005 | [7] 0.008 | [8] -0.018 | vemurafenib 0.006 | [9] 0.02 | barasertib -0.029 | [10] -0.021 | volasertib -0.034 | [11] -0.018 | [12] -0.038 | [13] 0.001 | saracatinib -0.021 | sotrastaurin -0.006

SPAST (UniProt Q9UBP0)
inactive: ibrutinib 0.003 | [1] 0.01 | ralimetinib 0.005 | [2] -0.017 | [3] 0.008 | [4] 0.035 | [5] -0.005 | [6] -0.011 | [7] 0.036 | [8] -0.015 | vemurafenib 0.045 | [9] 0.021 | barasertib 0.07 | [10] -0.007 | volasertib -0.016 | [11] -0.023 | [12] -0.011 | [13] 0.042 | saracatinib 0.017 | sotrastaurin 0.032

SRSF1 (UniProt Q07955)
inactive: ibrutinib -0.02 | [1] -0.011 | ralimetinib -0.003 | [2] -0.047 | [3] 0.001 | [4] 0.001 | [5] -0.009 | [6] 0.037 | [7] 0.003 | [8] -0.006 | vemurafenib 0.046 | [9] -0.007 | barasertib -0.021 | [10] -0.015 | volasertib 0.011 | [11] 0.015 | [12] 0.103 | [13] -0.027 | saracatinib -0.044 | sotrastaurin 0.007

Fetched one by one from the list above (2):
SRSF11 (UniProt Q05519)
inactive: ibrutinib 0.03 | [1] 0.023 | ralimetinib 0.002 | [2] 0.011 | [3] 0.019 | [4] 0.003 | [5] -0.001 | [6] -0.03 | [7] -0.003 | [8] 0.02 | vemurafenib -0.022 | [9] 0.007 | barasertib 0.018 | [10] -0.012 | volasertib -0.004 | [11] -0.018 | [12] 0.059 | [13] -0.026 | saracatinib 0.008 | sotrastaurin -0.01

SPAST (UniProt Q9UBP0)
inactive: ibrutinib 0.003 | [1] 0.01 | ralimetinib 0.005 | [2] -0.017 | [3] 0.008 | [4] 0.035 | [5] -0.005 | [6] -0.011 | [7] 0.036 | [8] -0.015 | vemurafenib 0.045 | [9] 0.021 | barasertib 0.07 | [10] -0.007 | volasertib -0.016 | [11] -0.023 | [12] -0.011 | [13] 0.042 | saracatinib 0.017 | sotrastaurin 0.032

Additional entries follow.

STIL isoform 2 (UniProt Q15468)
inactive: ibrutinib 0.045 | [1] 0.009 | ralimetinib -0.049 | [2] 0.023 | [3] 0.018 | [4] 0.026 | [5] 0.014 | [6] 0.014 | [7] 0.014 | [8] 0 | vemurafenib 0.018 | [9] -0.059 | barasertib 0.042 | [10] 0.04 | volasertib -0.023 | [11] -0.032 | [12] -0.003 | [13] -0.016 | saracatinib 0.027 | sotrastaurin 0.045

SPCS1, A0A5F9YFS9
inactive: ibrutinib 0.111 | [1] 0.025 | ralimetinib 0.035 | [2] 0.012 | [3] -0.007 | [4] 0.035 | [5] 0.134 | [6] 0.024 | [7] 0.013 | [8] 0.032 | vemurafenib 0.073 | [9] -0.001 | barasertib 0.054 | [10] 0.017 | volasertib 0.017 | [11] 0.023 | [12] 0.008 | [13] -0.05 | saracatinib 0.087 | sotrastaurin -0.107
